At least one structure is not confirmed: it was looked up by name or label, or the drawing left a doubt.
Test system: male Sprague Dawley rats
Assay: Tetradic encounter test
Format: in vivo, rat
Conditions: acute, Chlordiazepoxide 3 mg/kg i.p.
Procedure: Example 130b was dissolved in 0.5% Natrosol and administered acutely p.o. (gavage) 40 minutes before behavioural testing. Example 130b was administered in doses of 0.3, 1.0 and 3.0 mg/kg in a volume of 5 ml/kg, each.
Chlordiazepoxide was dissolved in 0.9% NaCl and administered acutely i.p. 30 minutes before behavioural testing with a dose of 3 mg/kg in a volume of 1 ml/kg (test group TG 2, see below). The solution was prepared freshly every day.
216 male Sprague Dawley rats. The animals were 6 weeks old at the start of the study. They were housed in groups of 4 animals (“acute animals”) or in single cages (“chronic animals”) at 12 h/12 h light/dark (start of the light phase at 2 a.m.), 20° C., 60% rH. Animals were provided by Elevage Janvier, France.
Animals were kept in group cages until compound administration. Each two animals derived from the same home cage and were treated the same way. During the time from compound administration to the beginning of the test, animals were kept in single cages for 40 minutes.
The tetradic encounter test was conducted according to the protocol of Wolffgramm (1990). Four rats were placed for 15 minutes in an open field arena of 1 m×1 m; all four animals of an encounter group were treated in the same way, they received either test compound, reference compound, or vehicle. Each two animals were from the same home cage. The open field was illuminated by dim red light (3-4 Lux). Rats were familiar with the open field and their encounter partners by means of three prior training sessions (no compound administration). Testing (compound administration) started at 2:20 p.m. (dark phase). All animals were marked individually by means of black symbols on their back. Behaviour was recorded on videotapes. Each animal was tested once.
Raw data were provided as videotapes and protocol sheets of application and test time. From the videotapes the trajectory of the animal's movement was tracked and coordinates and time stamps were continually noted in a data file. The resulting file was transferred to a computer program for further analysis.
The following parameters were calculated for the whole test phase (15 minutes): • Total distance travelled (m) • Use of available space (%) • Portion of time spent in the centre (%) • Portion of time spent in the corners (%) • Mean distance to the encounter mates (cm) • Distribution of spatial distance to the encounter mates • Dynamics of spatial distance to the encounter mates (cross-distance course) Social Behaviour
Raw data were provided as videotapes and protocol sheets of application and test time. From the videotapes the social behaviour of each rat was rated by an experienced ethologist using a list of predefined behavioural patterns. The observer was blind to the animal's treatment. The resulting file containing the time series of behavioural patterns was transferred to a computer program for further analysis.
The following parameters were calculated for the whole test phase (15 minutes): • Number of non-agonistic social acts (N) • Number of aggressive acts (N) • Number of defensive acts (N) • Time spent with non-agonistic social acts (%) • Time spent with aggressive acts (%) • Time spent with defensive acts (%) • Behavioural synchrony
To quantify inter-individual synchrony, coefficients of synchrony were calculated that base on rank correlation coefficients. For this purpose, the time series of behavioural patterns was subdivided into equidistant interval sections (here: 1 s intervals). To calculate synchrony coefficients, the user must define “pattern sets of interest”. Each set contained one or more behavioural patterns that were taken together for the analysis (e.g. “friendly contact” or “all kinds of social interaction”). […]

[1] = vs vehicle, Example 130b low and high dose (0.3 and 3.0 mg/kg p.o.)

Structure (SMILES): CNC1=Nc2ccc(Cl)cc2C(c2ccccc2)=[N+]([O-])C1 [Chlordiazepoxide, reference compound]
- locomotor activity (tetradic encounter, Example 130b 0.3-3.0 mg/kg p.o.): no effects
- inter-individual synchrony of behaviour (vs vehicle, Example 130b 0.3, 1.0, 3.0 mg/kg p.o. (especially the high dose increased synchrony)): tended to reduce immediate inter-individual synchrony
- distance to the encounter mates [1]: no significant effects
- number of defensive acts [1]: statistically significant decrease
- time spent in a distance of 75-100 cm to encounter mates (vs vehicle, Example 130b low and medium dose (0.3 and 1.0 mg/kg p.o.)): increase
- time spent in a distance of 25-50 cm to encounter mates (vs vehicle, Example 130b low dose (0.3 mg/kg p.o.)): decrease
- time spent with friendly (non-agonistic) social behaviour (vs vehicle, Example 130b medium dose (1.0 mg/kg p.o.)): increase

From patent publication US7728146B2, “Enzyme inhibitors” (Probiodrug AG, priority 2006, dated 2010)
